Measurements as given in paper PMC4558169, “Anchoring of both PKA-RIIα and 14-3-3θ regulates retinoic acid induced 16 mediated phosphorylation of heat shock protein 70” (Oncotarget, 2015).
No constants are given. Whether binding was seen depends on the method and setting. Binding seen in cells or lysates may run through a third protein. A yes stands for co-enrichment or nearness to the bait. Other partners may have been found.

Sequences of proteins named here, by UniProt entry; tags and fusion partners are left off.
UniProt Q86V87: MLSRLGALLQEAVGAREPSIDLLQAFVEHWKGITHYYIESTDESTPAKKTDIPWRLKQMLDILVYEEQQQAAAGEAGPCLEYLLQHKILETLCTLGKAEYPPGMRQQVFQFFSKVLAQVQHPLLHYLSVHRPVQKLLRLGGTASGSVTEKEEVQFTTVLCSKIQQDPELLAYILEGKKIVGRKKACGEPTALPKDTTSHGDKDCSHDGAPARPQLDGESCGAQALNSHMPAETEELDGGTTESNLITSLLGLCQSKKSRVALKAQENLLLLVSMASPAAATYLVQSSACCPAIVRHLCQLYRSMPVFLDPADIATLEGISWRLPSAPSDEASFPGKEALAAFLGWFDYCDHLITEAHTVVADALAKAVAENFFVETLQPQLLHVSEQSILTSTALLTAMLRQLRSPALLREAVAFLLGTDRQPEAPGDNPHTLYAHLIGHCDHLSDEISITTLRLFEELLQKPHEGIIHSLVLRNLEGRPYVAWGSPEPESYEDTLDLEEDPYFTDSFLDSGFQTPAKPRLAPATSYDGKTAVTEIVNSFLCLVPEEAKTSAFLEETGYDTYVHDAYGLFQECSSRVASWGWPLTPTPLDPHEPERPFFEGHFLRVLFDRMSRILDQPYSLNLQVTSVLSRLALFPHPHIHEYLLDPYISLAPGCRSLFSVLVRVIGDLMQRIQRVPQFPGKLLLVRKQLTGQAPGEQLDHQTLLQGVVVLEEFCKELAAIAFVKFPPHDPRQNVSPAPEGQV

Molecular target: Flag-tagged retinoic acid induced 16 (RAI16), full length (UniProt Q86V87)
Assay: affinity purification with mass spectrometry; lysates of HEK293T cells expressing Flag-tagged RAI16, anti-Flag immunoprecipitation, associated proteins identified by tandem (MS/MS) mass spectrometry (LTQ Orbitrap)

Row | Molecule | binding
1 | endogenous PKA-RIIα (from UniProt P13861-1 1-404) | binds
2 | endogenous 14-3-3θ (natural protein, human (endogenous in HEK293T), UniProt P27348 1-245, looked up, 14-3-3 protein theta, endogenous in HEK293T cells; source: endogenous, HEK293T lysate) MEKTELIQKAKLAEQAERYDDMATCMKAVTEQGAELSNEERNLLSVAYKNVVGGRRSAWRVISSIEQKTDTSDKKLQLIKDYREKVESELRSICTTVLELLDKYLIANATNPESKVFYLKMKGDYFRYLAEVACGDDRKQTIDNSQGAYQEAFDISKKEMQPTHPIRLGLALNFSVFYYEILNNPELACTLAKTAFDEAIAELDTLNEDSYKDSTLIMQLLRDNLTLWTSDSAGEECDAAEGAEN | binds
